Tested on: SW480 cells
Assay: Illumina microarray gene expression analysis
Format: cell-based
Settings: p=0.02
Protocol: A microarray analysis using an Illumina® array was performed in triplicate to investigate differential gene expression in cells treated with a Wnt pathway inhibitor. […] In vitro transcription reactions were incubated overnight (14 hr). Labeled cRNA was hybridized to Illumina® Human-6 v3 BeadChips (Illumina, San Diego, Calif.) at 58° C. overnight, according to the Illumina® Whole-Genome Gene Expression Protocol for BeadStation (Doc. #11226030.rev.C, Illumina Inc.). The hybridized BeadChip was stained with streptavidin-Cy3 (Amersham™, PA43001) for visualization and scanned with an Illumina® BeadArray Reader. The scanned images were imported into BeadStudio 3.1.3.0 (Illumina Inc) for extraction and quality control. A criterion of 0.5-fold change in expression was applied to the analysis. […] A list of differentially expressed genes of interest is given below in tables 1 and 2. […] Many known Wnt target genes (column 3) were influenced in treated cells. Some genes were influenced that are also affected in Ls174T colorectal cancer cells expressing an inducible dominant negative form of TCF-4 (column 4) (van de Wetering et al., Mol. Cell. Biol. (2008) 28(8), p. 2732-44). Other influenced genes that are important for cell cycle control and other genes correlated to regulated canonical Wnt signaling are also shown. […]

COc1ccc(-n2c(SCc3nc(-c4ccc(C)cc4)no3)nnc2-c2ccncc2)cc1 [Compound 1]
final hit numbers (differentially expressed genes) (25 μM compound): 881 hits
final hit numbers (differentially expressed genes) ([…] compound (so in the source)): 384 hits

Source: patent US8883827B2, “Azole derivatives as WTN pathway inhibitors” (Oslo University Hospital HF, priority 2009, dated 2014)
